This passage reports log2 fold change results from the supplement of paper PMC12819154, “High-throughput peptide-centric local stability assay extends protein–ligand identification to membrane proteins, tissues and bacteria” (Nature Structural & Molecular Biology, 2025).

Protein sequences, listed by entry. Tags and fused reporters are not part of them. Lines headed by an entry give the natural chain unless they say otherwise; changes in a name come on top.
UniProt Q99J99: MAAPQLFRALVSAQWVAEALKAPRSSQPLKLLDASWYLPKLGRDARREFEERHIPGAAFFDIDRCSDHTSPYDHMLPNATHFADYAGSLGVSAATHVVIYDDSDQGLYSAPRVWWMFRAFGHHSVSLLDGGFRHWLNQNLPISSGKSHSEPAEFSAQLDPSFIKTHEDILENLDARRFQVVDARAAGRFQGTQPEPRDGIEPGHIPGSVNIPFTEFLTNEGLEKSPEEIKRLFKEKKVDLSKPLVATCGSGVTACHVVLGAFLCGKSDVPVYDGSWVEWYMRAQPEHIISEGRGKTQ
UniProt Q99KX1: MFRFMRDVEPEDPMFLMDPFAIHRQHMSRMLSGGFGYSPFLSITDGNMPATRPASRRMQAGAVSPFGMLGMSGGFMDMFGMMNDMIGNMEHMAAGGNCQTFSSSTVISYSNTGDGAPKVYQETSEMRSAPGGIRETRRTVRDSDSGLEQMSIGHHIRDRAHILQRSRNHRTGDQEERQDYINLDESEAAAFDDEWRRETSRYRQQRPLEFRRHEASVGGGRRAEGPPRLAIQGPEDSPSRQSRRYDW
UniProt Q921Q3: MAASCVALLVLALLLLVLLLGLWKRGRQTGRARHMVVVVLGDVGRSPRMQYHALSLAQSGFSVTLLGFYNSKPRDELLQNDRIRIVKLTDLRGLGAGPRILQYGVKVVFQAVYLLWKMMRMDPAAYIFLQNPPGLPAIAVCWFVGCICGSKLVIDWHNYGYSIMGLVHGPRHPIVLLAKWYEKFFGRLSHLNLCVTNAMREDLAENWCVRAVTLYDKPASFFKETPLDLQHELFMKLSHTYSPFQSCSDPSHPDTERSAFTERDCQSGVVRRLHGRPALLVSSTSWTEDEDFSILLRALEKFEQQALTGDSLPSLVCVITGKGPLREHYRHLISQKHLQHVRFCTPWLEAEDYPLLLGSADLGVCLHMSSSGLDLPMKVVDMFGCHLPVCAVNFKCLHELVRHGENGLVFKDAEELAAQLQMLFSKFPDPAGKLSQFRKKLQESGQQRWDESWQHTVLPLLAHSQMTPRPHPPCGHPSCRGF
UniProt Q99K28: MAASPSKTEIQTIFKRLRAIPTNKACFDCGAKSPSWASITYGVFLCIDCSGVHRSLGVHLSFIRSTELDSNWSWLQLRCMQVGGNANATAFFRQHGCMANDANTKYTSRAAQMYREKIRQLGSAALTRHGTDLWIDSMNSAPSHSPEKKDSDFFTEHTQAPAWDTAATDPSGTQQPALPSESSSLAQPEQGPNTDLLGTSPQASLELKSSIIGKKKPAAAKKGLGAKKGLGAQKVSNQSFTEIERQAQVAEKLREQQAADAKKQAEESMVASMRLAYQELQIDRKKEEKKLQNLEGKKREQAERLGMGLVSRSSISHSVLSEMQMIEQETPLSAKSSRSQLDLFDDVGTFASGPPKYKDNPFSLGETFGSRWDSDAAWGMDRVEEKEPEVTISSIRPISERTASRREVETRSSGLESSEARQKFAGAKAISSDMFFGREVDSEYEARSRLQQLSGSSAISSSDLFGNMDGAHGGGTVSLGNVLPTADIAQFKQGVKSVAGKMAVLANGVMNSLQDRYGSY
UniProt Q921D4: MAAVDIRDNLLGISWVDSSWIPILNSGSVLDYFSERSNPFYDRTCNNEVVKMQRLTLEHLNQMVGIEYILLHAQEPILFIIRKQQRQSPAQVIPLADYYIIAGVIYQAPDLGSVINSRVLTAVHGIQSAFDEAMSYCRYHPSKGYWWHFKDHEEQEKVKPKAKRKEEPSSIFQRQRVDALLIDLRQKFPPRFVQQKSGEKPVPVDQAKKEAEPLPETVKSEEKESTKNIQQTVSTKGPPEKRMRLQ
UniProt Q99L48: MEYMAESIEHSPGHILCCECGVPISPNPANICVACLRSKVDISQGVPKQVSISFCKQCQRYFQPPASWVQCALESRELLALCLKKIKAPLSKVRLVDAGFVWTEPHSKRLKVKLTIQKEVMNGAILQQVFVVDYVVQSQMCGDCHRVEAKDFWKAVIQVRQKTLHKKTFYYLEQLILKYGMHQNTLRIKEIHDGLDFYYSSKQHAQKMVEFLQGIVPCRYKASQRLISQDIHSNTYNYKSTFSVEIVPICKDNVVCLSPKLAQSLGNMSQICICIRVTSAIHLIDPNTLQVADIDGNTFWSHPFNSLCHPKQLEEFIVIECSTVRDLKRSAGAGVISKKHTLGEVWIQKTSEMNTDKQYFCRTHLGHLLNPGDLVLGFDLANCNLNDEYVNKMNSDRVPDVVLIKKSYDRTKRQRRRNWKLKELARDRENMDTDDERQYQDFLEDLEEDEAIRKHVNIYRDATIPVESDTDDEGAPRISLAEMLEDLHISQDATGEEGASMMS
UniProt Q99LC3: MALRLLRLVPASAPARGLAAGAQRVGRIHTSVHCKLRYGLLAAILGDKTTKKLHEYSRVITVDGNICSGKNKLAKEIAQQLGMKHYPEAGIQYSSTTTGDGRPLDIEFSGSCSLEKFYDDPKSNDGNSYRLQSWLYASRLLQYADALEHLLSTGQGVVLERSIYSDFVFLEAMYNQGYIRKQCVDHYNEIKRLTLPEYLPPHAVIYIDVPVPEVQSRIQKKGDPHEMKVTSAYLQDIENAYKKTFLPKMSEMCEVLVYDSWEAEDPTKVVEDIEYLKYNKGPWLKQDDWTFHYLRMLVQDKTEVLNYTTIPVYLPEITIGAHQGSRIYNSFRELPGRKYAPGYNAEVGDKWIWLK
UniProt Q922Q5: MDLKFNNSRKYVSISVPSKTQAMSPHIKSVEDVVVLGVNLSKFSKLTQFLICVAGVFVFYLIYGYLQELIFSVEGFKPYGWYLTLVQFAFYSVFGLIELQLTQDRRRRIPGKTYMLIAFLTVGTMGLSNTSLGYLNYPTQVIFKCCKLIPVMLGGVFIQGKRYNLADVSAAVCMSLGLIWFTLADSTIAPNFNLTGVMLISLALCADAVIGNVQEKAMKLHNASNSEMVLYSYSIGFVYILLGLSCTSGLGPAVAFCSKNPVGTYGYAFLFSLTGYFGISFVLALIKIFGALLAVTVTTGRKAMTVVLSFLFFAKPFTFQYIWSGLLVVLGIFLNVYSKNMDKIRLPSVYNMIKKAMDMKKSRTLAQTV
UniProt Q924Y0: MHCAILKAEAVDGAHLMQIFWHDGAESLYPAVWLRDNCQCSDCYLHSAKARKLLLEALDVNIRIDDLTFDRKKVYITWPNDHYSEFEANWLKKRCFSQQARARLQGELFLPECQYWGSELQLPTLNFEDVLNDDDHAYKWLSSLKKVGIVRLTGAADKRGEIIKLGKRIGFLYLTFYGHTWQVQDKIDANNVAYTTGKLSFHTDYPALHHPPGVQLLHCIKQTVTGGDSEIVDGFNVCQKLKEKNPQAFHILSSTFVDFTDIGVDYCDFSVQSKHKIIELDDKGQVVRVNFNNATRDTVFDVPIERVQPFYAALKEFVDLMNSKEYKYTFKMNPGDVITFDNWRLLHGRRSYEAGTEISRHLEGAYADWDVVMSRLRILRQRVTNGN
UniProt Q922Q8: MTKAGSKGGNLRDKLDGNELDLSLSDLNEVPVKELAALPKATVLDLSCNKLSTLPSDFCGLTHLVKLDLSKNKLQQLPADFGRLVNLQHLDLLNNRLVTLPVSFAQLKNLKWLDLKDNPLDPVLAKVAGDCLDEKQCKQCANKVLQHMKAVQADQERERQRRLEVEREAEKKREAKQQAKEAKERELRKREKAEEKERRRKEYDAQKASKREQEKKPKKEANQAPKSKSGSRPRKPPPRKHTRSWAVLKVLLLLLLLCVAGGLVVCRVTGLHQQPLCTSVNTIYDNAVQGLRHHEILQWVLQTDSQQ
UniProt Q99K23: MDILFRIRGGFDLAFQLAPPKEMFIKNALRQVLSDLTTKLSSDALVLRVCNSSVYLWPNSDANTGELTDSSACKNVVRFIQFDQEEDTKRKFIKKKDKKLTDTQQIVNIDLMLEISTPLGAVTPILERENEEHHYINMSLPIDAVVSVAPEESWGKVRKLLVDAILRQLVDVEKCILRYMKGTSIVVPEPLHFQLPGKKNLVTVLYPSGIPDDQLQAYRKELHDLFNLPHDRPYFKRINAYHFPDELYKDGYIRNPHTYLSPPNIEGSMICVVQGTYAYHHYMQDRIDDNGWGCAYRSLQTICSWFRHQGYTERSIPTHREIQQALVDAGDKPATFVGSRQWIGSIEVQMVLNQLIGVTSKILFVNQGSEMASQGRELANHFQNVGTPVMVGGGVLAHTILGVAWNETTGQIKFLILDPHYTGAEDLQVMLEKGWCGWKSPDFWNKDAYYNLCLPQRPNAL
UniProt Q99K24: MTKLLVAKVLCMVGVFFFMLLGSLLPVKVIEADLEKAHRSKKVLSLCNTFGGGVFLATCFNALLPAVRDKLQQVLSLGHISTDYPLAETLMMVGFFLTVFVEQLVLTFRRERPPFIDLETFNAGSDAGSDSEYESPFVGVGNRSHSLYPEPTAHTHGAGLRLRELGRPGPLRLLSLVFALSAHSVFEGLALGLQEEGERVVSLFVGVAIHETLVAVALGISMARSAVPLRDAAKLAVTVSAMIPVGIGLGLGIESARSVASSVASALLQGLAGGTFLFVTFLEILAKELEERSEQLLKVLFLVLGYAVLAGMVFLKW
UniProt Q99L60: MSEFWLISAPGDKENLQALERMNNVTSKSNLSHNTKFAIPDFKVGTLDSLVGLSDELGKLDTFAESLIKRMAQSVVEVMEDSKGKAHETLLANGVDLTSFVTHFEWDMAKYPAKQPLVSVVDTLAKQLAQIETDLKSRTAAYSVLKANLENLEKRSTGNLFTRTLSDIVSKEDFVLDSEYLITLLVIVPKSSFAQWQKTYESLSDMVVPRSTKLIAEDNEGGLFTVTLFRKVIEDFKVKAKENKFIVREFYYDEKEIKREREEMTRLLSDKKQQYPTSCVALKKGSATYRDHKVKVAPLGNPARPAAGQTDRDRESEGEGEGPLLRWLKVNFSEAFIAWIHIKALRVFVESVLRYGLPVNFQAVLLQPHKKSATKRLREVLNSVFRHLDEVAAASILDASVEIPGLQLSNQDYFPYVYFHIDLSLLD
UniProt Q99JR6: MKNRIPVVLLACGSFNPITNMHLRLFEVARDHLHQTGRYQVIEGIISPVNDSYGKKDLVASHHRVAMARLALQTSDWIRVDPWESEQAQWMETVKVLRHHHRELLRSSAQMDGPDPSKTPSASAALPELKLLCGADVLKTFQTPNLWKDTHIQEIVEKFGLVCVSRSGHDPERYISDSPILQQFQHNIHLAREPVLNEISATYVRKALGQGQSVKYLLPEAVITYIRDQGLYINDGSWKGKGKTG
UniProt Q99LE3: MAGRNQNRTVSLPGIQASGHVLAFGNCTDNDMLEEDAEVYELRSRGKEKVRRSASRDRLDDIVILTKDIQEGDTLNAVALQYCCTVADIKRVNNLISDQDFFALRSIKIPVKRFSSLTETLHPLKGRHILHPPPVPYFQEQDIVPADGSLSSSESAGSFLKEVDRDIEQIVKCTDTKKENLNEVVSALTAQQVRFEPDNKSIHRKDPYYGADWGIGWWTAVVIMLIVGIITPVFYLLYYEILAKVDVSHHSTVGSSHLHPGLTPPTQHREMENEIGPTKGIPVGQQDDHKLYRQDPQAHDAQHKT
UniProt Q923M0: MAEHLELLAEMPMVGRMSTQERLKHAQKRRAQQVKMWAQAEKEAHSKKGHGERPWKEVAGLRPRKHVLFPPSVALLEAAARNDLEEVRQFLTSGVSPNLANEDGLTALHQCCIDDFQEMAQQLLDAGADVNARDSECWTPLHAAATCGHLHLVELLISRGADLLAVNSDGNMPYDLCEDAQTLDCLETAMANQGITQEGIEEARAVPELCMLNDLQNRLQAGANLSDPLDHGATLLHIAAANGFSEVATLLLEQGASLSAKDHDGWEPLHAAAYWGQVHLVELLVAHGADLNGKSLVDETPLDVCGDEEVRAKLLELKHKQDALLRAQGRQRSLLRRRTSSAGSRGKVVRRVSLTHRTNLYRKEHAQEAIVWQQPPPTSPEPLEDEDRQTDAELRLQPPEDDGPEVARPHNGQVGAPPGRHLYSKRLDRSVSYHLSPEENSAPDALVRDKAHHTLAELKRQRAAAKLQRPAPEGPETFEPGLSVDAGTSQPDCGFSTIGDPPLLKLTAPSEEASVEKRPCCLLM
UniProt Q91ZX6: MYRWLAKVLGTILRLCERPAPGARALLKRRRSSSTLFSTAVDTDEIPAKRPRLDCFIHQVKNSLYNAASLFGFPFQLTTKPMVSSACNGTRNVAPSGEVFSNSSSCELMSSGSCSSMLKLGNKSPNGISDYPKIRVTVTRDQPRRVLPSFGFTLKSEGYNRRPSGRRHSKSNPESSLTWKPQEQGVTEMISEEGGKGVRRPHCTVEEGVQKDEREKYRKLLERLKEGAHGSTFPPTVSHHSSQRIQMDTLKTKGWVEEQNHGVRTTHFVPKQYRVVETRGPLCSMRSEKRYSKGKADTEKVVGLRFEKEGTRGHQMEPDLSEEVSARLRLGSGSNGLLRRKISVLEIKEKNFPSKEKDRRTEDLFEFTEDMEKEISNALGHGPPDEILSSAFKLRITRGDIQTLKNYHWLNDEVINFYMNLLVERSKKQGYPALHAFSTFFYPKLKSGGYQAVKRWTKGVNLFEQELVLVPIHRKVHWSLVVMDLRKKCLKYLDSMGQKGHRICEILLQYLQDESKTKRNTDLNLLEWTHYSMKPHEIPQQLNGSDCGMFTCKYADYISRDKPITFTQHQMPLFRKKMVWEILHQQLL

The other results are listed elsewhere or left out. Small differences around the control level are noise.

Compound in this experiment: CN[C@@H]1C[C@H]2O[C@@](C)([C@@H]1OC)n1c3ccccc3c3c4c(c5c6ccccc6n2c5c31)C(=O)NC4 [staurosporine]
Nature of the experiment: log2 fold change of tryptic peptide abundance, ligand vs vehicle (limited proteolysis) (log2 ratio); higher = more trypsin-susceptible (destabilized). To be noted: ligand concentration: 20 uM; sample: mouse liver crude lysate; replicate design: treated separately.
“UniProt Q99LH1 (peptide sequence: KWDAQMEEEPSNK, peptide start residue: 657)”: the log2 fold change was -0.654.

On to “UniProt Q99J99 (peptide sequence: AQPEHIISEGR, peptide start residue: 283)”, for which the log2 fold change turned out to be 0.0791.

Turning to “UniProt Q99KX1 (peptide sequence: QQRPLEFR, peptide start residue: 204)”, the log2 fold change turned out to be 0.189.

Turning to “UniProt Q99KJ8 (peptide sequence: ASVEDADTQNK, peptide start residue: 299)”, the log2 fold change is -0.157.

With “UniProt Q921Q3 (peptide sequence: PHPPCGHPSCR, peptide start residue: 470)”, the log2 fold change was -0.297.

On to “UniProt Q99KL7 (peptide sequence: VAAEILGIK, peptide start residue: 173)”, for which the log2 fold change was -0.319.

On to “UniProt Q99K28 (peptide sequence: ACFDCGAK, peptide start residue: 25)”, for which the log2 fold change was -0.329.

Turning to “UniProt Q922Q9 (peptide sequence: TQFSDKPVQDR, peptide start residue: 38)”, the log2 fold change was -0.14.

As for “UniProt Q99KR7 (peptide sequence: HVVFGHVK, peptide start residue: 167)”, the log2 fold change is 0.24.

For the target “UniProt Q921D4 (peptide sequence: EAEPLPETVK, peptide start residue: 210)”, the log2 fold change was -0.211.

In the case of “UniProt Q921H8 (peptide sequence: AEIVPVTTTVLDDKGDK, peptide start residue: 221)”, the log2 fold change is -0.106.

As to “UniProt Q99L90 (peptide sequence: SEDEESLAGQKR, peptide start residue: 22)”, the log2 fold change is 0.413.

Regarding “UniProt Q99J87 (peptide sequence: RYNDALFIHDTVR, peptide start residue: 286)”, the log2 fold change was -0.56.

On to “UniProt Q99LI9 (peptide sequence: GCFYPHAFNVK, peptide start residue: 310)”, for which the log2 fold change worked out at 0.155.

As to “UniProt Q99L48 (peptide sequence: QVSISFCK, peptide start residue: 49)”, the log2 fold change was -0.177.

For the target “UniProt Q99LC3 (peptide sequence: YGLLAAILGDK, peptide start residue: 38)”, the log2 fold change was 0.417.

Consider “UniProt Q99K01 (peptide sequence: ILSDTTLWLR, peptide start residue: 117)”, for which the log2 fold change turned out to be 0.16.

On to “UniProt Q922Q5 (peptide sequence: YVSISVPSK, peptide start residue: 11)”, for which the log2 fold change is -0.195.

Take “UniProt Q924Y0 (peptide sequence: IDDLTFDRK, peptide start residue: 64)”: the log2 fold change came to 0.325.

Regarding “UniProt Q924H2 (peptide sequence: SLLDILTDPSKR, peptide start residue: 569)”, the log2 fold change was -0.142.

On to “UniProt Q922Q8 (peptide sequence: LEVEREAEK, peptide start residue: 163)”, for which the log2 fold change was -0.185.

As for “UniProt Q922R0 (peptide sequence: VSAPAADPKPR, peptide start residue: 23)”, the log2 fold change is -0.31.

As to “UniProt Q99JV5 (peptide sequence: IKLEGLSDVASISTK, peptide start residue: 15)”, the log2 fold change worked out at 0.119.

For the target “UniProt Q923J1 (peptide sequence: LGSSPNSSPHMSSPPTK, peptide start residue: 1383)”, the log2 fold change is -0.341.

On to “UniProt Q99KV1 (peptide sequence: LALQLHPDRNPDDPQAQEK, peptide start residue: 48)”, for which the log2 fold change turned out to be 0.179.

Regarding “UniProt Q99K23 (peptide sequence: ELHDLFNLPHDRPYFK, peptide start residue: 221)”, the log2 fold change is -0.307.

Consider “UniProt Q99KF1 (peptide sequence: DKLSELQLR, peptide start residue: 159)”, for which the log2 fold change was -0.28.

Regarding “UniProt Q99K24 (peptide sequence: SHSLYPEPTAHTHGAGLR, peptide start residue: 144)”, the log2 fold change was -0.0719.

For “UniProt Q99JY9 (peptide sequence: NIVLSGGSTMFR, peptide start residue: 318)”, the log2 fold change came out at 0.154.

On to “UniProt Q99L60 (peptide sequence: KGSATYRDHK, peptide start residue: 284)”, for which the log2 fold change is -0.127.

As to “UniProt Q99LB2 (peptide sequence: AREDFIK, peptide start residue: 229)”, the log2 fold change stood at 0.119.

For the target “UniProt Q99JR6 (peptide sequence: NRIPVVLLACGSFNPITNMHLR, peptide start residue: 3)”, the log2 fold change is 0.318.

Turning to “UniProt Q99LE3 (peptide sequence: RVNNLISDQDFFALR, peptide start residue: 91)”, the log2 fold change stood at 0.223.

For “UniProt Q99KK2 (peptide sequence: HLIEMGYLQGGK, peptide start residue: 221)”, the log2 fold change amounted to 0.231.

In the case of “UniProt Q923M0 (peptide sequence: DKAHHTLAELKR, peptide start residue: 449)”, the log2 fold change is -0.447.

“UniProt Q921I1 (peptide sequence: CFVKLPEGTTPEK, peptide start residue: 655)”: the log2 fold change amounted to 0.277.

“UniProt Q99KP6 (peptide sequence: FIASTGMDR, peptide start residue: 489)”: the log2 fold change was -0.349.

With “UniProt Q99LI2 (peptide sequence: ALEPDDRR, peptide start residue: 373)”, the log2 fold change was -0.414.

For “UniProt Q924D0 (peptide sequence: HLWQGVHYR, peptide start residue: 331)”, the log2 fold change was determined as 0.286.

In the case of “UniProt Q91ZX6 (peptide sequence: RPHCTVEEGVQKDER, peptide start residue: 200)”, the log2 fold change stood at 0.366.
